The results in this text go back to the supplement of paper PMC4840960.

Where a name gives a salt, the structure may show the parent alone. ± gives the standard deviation of the averaged measurements. Some of the results follow. Part of the spread comes from offsets between plates or batches.

For one assay, the system named is E18 rat cortical neuron-glia co-culture. As to the kind of experiment: total nuclei (DAPI) / Olig2+ nuclei (ratio); higher = more depletion of OPC/OL lineage cells. To be noted: 1 µM; treatment time: 8 days (DIV5-DIV13).
Turning to `CC1Cc2ccccc2N1NC(=O)c1ccc(Cl)c(S(N)(=O)=O)c1` (stereo unspecified) [Indapamide], the total nuclei came out at 2.62.

On to `NC(=O)c1ncn([C@@H]2O[C@H](CO)[C@@H](O)[C@H]2O)n1` [Ribavirin], for which the total nuclei worked out at 4.06.

`COCCCOc1ccnc(C[S+]([O-])c2nc3ccccc3[nH]2)c1C` (stereo unspecified) [Rabeprazole]: the total nuclei is 4.15.

On to `CC[C@]1(O)C[C@@H]2CN(CCc3c([nH]c4ccccc34)[C@@](C(=O)OC)(c3cc4c(cc3OC)N(C)[C@H]3[C@@](O)(C(N)=O)[C@H](O)[C@]5(CC)C=CCN6CC[C@]43[C@@H]65)C2)C1` [Vindesine], for which the total nuclei was more than 40.

As to `CCc1nc(N)nc(N)c1-c1ccc(Cl)cc1` [Pyrimethamine], the total nuclei was 15.9.

With `CNNCc1ccc(C(=O)NC(C)C)cc1` [Procarbazine], the total nuclei stood at 3.2.

For the molecule `O=C(NCCN1CCOCC1)c1ccc(Cl)cc1` [Moclobemide], the total nuclei amounted to 3.74.

As to `CC1(C)C[C@@H]1C(=O)N/C(=C\CCCCSC[C@H](N)C(=O)O)C(=O)O` [Cilastatin], the total nuclei is 2.9.

In the case of `O=C(O)CCc1nc(-c2ccccc2)c(-c2ccccc2)o1` [Oxaprozin], the total nuclei turned out to be 2.88.

Turning to `CC(C)NCC(O)c1cc(O)cc(O)c1` (stereo unspecified) [Metaproterenol], the total nuclei was 3.97.

Take `CC(C)Cc1ccc(C(C)C(=O)O)cc1` (stereo unspecified) [Ibuprofen]: the total nuclei was 3.64.

For the molecule `CCn1cc(C(=O)O)c(=O)c2cc(F)c(N3CCNCC3)cc21` [Norfloxacin], the total nuclei is 2.7.

With `C[n+]1ccccc1C=NO` [Pralidoxime], the total nuclei was 2.75.

For the molecule `COC(=O)Nc1nc2cc(C(=O)c3ccccc3)ccc2[nH]1` [Mebendazole], the total nuclei came to 12.7.

With `Cc1ccc(Cl)c(Nc2ccccc2C(=O)O)c1Cl` [Meclofenamic acid], the total nuclei was found to be 2.5.

On to `CC(C)(C)C(O)/C=C/c1ccc2c(c1)OCO2` (stereo unspecified) [Stiripentol], for which the total nuclei was 2.75.

Take `Oc1ccc(C2CNCCc3c2cc(O)c(O)c3Cl)cc1` (stereo unspecified) [Fenoldopam]: the total nuclei is 4.06.

On to `O=C(O)c1cccnc1` [Niacin], for which the total nuclei was 4.17.

In the case of `CN1CCCCC1CCN1c2ccccc2Sc2ccc([S+](C)[O-])cc21` (stereo unspecified) [Mesoridazine], the total nuclei was determined as 3.5.

With `c1ccc2[nH]c(-c3cscn3)nc2c1` [Thiabendazole], the total nuclei came out at 2.95.

For `CO[C@H]1/C=C/O[C@@]2(C)Oc3c(C)c(O)c4c(O)c(c5c(nc6cc(C)ccn65)c4c3C2=O)NC(=O)/C(C)=C\C=C\[C@H](C)[C@H](O)[C@@H](C)[C@@H](O)[C@@H](C)[C@H](OC(C)=O)[C@@H]1C` [Rifaximin], the total nuclei was 2.79.

With `Cn1c(NCCN(CCO)CCCc2ccc([N+](=O)[O-])cc2)cc(=O)n(C)c1=O` [Nifekalant], the total nuclei was determined as 4.33.

With `COc1ccc([C@@H]2Sc3ccccc3N(CCN(C)C)C(=O)[C@@H]2OC(C)=O)cc1` [Diltiazem], the total nuclei worked out at 2.85.

For `O=C1CN2Cc3c(ccc(Cl)c3Cl)N=C2N1` [Anagrelide hydrochloride], the total nuclei turned out to be 3.12.

Take `C[C@]12CCC(=O)C=C1CC[C@@H]1[C@@H]2C(=O)C[C@@]2(C)[C@H]1CC[C@]2(O)C(=O)CO` [Cortisone]: the total nuclei was 2.79.

Take `Nc1nc(O)c2ncn(CCC(CO)CO)c2n1` [Penciclovir]: the total nuclei came out at 2.75.

Turning to `NNCCc1ccccc1` [Phenelzine], the total nuclei turned out to be 4.21 ± 0.95.

Consider `C#C[C@]1(O)CC[C@H]2[C@@H]3[C@H](C)CC4=C(CCC(=O)C4)[C@H]3CC[C@@]21C` [Tibolone], for which the total nuclei worked out at 2.73.

`CN(C)[C@@H]1C(O)=C(C(=O)NCN2CCCC2)C(=O)[C@@]2(O)C(O)=C3C(=O)c4c(O)cccc4[C@@](C)(O)[C@H]3C[C@@H]12` [Rolitetracycline]: the total nuclei stood at 2.66.

Take `O=C(O)COCCN1CCN(C(c2ccccc2)c2ccc(Cl)cc2)CC1` (stereo unspecified) [Virlix]: the total nuclei amounted to 3.78.

For `COC(=O)C1=C(C)NC(C)=C(C(=O)OCCN(C)Cc2ccccc2)C1c1cccc([N+](=O)[O-])c1` (stereo unspecified) [Nicardipine], the total nuclei turned out to be 3.02.

Consider `O=C1C(CC[S+]([O-])c2ccccc2)C(=O)N(c2ccccc2)N1c1ccccc1` (stereo unspecified) [Sulfinpyrazone], for which the total nuclei turned out to be 2.8.

In the case of `C#C[C@]1(O)CC[C@H]2[C@@H]3CCc4cc(O)ccc4[C@H]3CC[C@@]21C` [Ethinyl Estradiol], the total nuclei is 4.38.

Turning to `CN1CCc2cc(Cl)c(O)cc2C(c2ccccc2)C1` (stereo unspecified), the total nuclei was 3.74.

For the molecule `CC(C(=O)O)c1ccc(-c2ccccc2)c(F)c1` (stereo unspecified) [Flurbiprofen], the total nuclei amounted to 4.01 ± 1.7.

On to `CCOC(=O)[C@H](CCc1ccccc1)N[C@@H](C)C(=O)N1CCC[C@H]1C(=O)O` [Enalapril], for which the total nuclei came to 2.3.

With `CNS(=O)(=O)Cc1ccc2[nH]cc(CCN(C)C)c2c1` [Sumatriptan], the total nuclei stood at 2.77.

As to `CCCCC[C@H](O)/C=C/[C@H]1[C@H](O)CC(=O)[C@@H]1CCCCCCC(=O)O` [Alprostadil], the total nuclei came out at 4.18.

The assay is the same for the next values; noted with them: 5 µM; treatment time: 8 days (DIV5-DIV13).
Take `CC1Cc2ccccc2N1NC(=O)c1ccc(Cl)c(S(N)(=O)=O)c1` (stereo unspecified) [Indapamide]: the total nuclei turned out to be 2.7.

For the molecule `NC(=O)c1ncn([C@@H]2O[C@H](CO)[C@@H](O)[C@H]2O)n1` [Ribavirin], the total nuclei is 4.2.

`COCCCOc1ccnc(C[S+]([O-])c2nc3ccccc3[nH]2)c1C` (stereo unspecified) [Rabeprazole]: the total nuclei turned out to be 5.2.

`CC[C@]1(O)C[C@@H]2CN(CCc3c([nH]c4ccccc34)[C@@](C(=O)OC)(c3cc4c(cc3OC)N(C)[C@H]3[C@@](O)(C(N)=O)[C@H](O)[C@]5(CC)C=CCN6CC[C@]43[C@@H]65)C2)C1` [Vindesine]: the total nuclei was more than 40.

Take `CCc1nc(N)nc(N)c1-c1ccc(Cl)cc1` [Pyrimethamine]: the total nuclei was determined as 28.8.

With `CNNCc1ccc(C(=O)NC(C)C)cc1` [Procarbazine], the total nuclei was 3.1.

Turning to `O=C(NCCN1CCOCC1)c1ccc(Cl)cc1` [Moclobemide], the total nuclei is 3.8.

In the case of `CC1(C)C[C@@H]1C(=O)N/C(=C\CCCCSC[C@H](N)C(=O)O)C(=O)O` [Cilastatin], the total nuclei was 2.9.

Regarding `O=C(O)CCc1nc(-c2ccccc2)c(-c2ccccc2)o1` [Oxaprozin], the total nuclei was found to be 2.9.

Turning to `CC(C)NCC(O)c1cc(O)cc(O)c1` (stereo unspecified) [Metaproterenol], the total nuclei was 4.4.

In the case of `CC(C)Cc1ccc(C(C)C(=O)O)cc1` (stereo unspecified) [Ibuprofen], the total nuclei stood at 3.7.

Regarding `CCn1cc(C(=O)O)c(=O)c2cc(F)c(N3CCNCC3)cc21` [Norfloxacin], the total nuclei was determined as 3.6.

On to `C[n+]1ccccc1C=NO` [Pralidoxime], for which the total nuclei was 2.9.

`COC(=O)Nc1nc2cc(C(=O)c3ccccc3)ccc2[nH]1` [Mebendazole]: the total nuclei was 33.8.

Turning to `Cc1ccc(Cl)c(Nc2ccccc2C(=O)O)c1Cl` [Meclofenamic acid], the total nuclei worked out at 2.5.

Consider `CC(C)(C)C(O)/C=C/c1ccc2c(c1)OCO2` (stereo unspecified) [Stiripentol], for which the total nuclei amounted to 2.9.

As for `Oc1ccc(C2CNCCc3c2cc(O)c(O)c3Cl)cc1` (stereo unspecified) [Fenoldopam], the total nuclei turned out to be 4.4.

Consider `O=C(O)c1cccnc1` [Niacin], for which the total nuclei amounted to 4.5.

Take `CN1CCCCC1CCN1c2ccccc2Sc2ccc([S+](C)[O-])cc21` (stereo unspecified) [Mesoridazine]: the total nuclei was found to be 4.

Take `c1ccc2[nH]c(-c3cscn3)nc2c1` [Thiabendazole]: the total nuclei was 3.1.

For `CO[C@H]1/C=C/O[C@@]2(C)Oc3c(C)c(O)c4c(O)c(c5c(nc6cc(C)ccn65)c4c3C2=O)NC(=O)/C(C)=C\C=C\[C@H](C)[C@H](O)[C@@H](C)[C@@H](O)[C@@H](C)[C@H](OC(C)=O)[C@@H]1C` [Rifaximin], the total nuclei stood at 2.9.

Take `Cn1c(NCCN(CCO)CCCc2ccc([N+](=O)[O-])cc2)cc(=O)n(C)c1=O` [Nifekalant]: the total nuclei was found to be 3.8.

For the molecule `COc1ccc([C@@H]2Sc3ccccc3N(CCN(C)C)C(=O)[C@@H]2OC(C)=O)cc1` [Diltiazem], the total nuclei was 3.1.

Regarding `O=C1CN2Cc3c(ccc(Cl)c3Cl)N=C2N1` [Anagrelide hydrochloride], the total nuclei was determined as 3.3.

Take `C[C@]12CCC(=O)C=C1CC[C@@H]1[C@@H]2C(=O)C[C@@]2(C)[C@H]1CC[C@]2(O)C(=O)CO` [Cortisone]: the total nuclei amounted to 2.8.

`Nc1nc(O)c2ncn(CCC(CO)CO)c2n1` [Penciclovir]: the total nuclei turned out to be 2.7.

Turning to `NNCCc1ccccc1` [Phenelzine], the total nuclei was more than 40.

As to `C#C[C@]1(O)CC[C@H]2[C@@H]3[C@H](C)CC4=C(CCC(=O)C4)[C@H]3CC[C@@]21C` [Tibolone], the total nuclei is 2.8.

With `CN(C)[C@@H]1C(O)=C(C(=O)NCN2CCCC2)C(=O)[C@@]2(O)C(O)=C3C(=O)c4c(O)cccc4[C@@](C)(O)[C@H]3C[C@@H]12` [Rolitetracycline], the total nuclei came out at 2.7.

With `O=C(O)COCCN1CCN(C(c2ccccc2)c2ccc(Cl)cc2)CC1` (stereo unspecified) [Virlix], the total nuclei came to 3.7.

Regarding `COC(=O)C1=C(C)NC(C)=C(C(=O)OCCN(C)Cc2ccccc2)C1c1cccc([N+](=O)[O-])c1` (stereo unspecified) [Nicardipine], the total nuclei stood at 5.6.

With `O=C1C(CC[S+]([O-])c2ccccc2)C(=O)N(c2ccccc2)N1c1ccccc1` (stereo unspecified) [Sulfinpyrazone], the total nuclei came out at 3.

On to `C#C[C@]1(O)CC[C@H]2[C@@H]3CCc4cc(O)ccc4[C@H]3CC[C@@]21C` [Ethinyl Estradiol], for which the total nuclei amounted to 14.

As to `CN1CCc2cc(Cl)c(O)cc2C(c2ccccc2)C1` (stereo unspecified), the total nuclei stood at 4.1.

On to `CC(C(=O)O)c1ccc(-c2ccccc2)c(F)c1` (stereo unspecified) [Flurbiprofen], for which the total nuclei came out at 5 ± 0.71.

For `CCOC(=O)[C@H](CCc1ccccc1)N[C@@H](C)C(=O)N1CCC[C@H]1C(=O)O` [Enalapril], the total nuclei was determined as 2.2.

In the case of `CNS(=O)(=O)Cc1ccc2[nH]cc(CCN(C)C)c2c1` [Sumatriptan], the total nuclei is 2.6.

Turning to `CCCCC[C@H](O)/C=C/[C@H]1[C@H](O)CC(=O)[C@@H]1CCCCCCC(=O)O` [Alprostadil], the total nuclei is 37.3.
